# Laboratory results as given in PubChem BioAssay AID1671190 (National Center for Advancing Translational Sciences (NCATS), 2021).
# Amino acid sequences for entries named in this document (tags omitted). A change or cut given only in a name is not applied to a line headed by its entry.
# UniProt P18054: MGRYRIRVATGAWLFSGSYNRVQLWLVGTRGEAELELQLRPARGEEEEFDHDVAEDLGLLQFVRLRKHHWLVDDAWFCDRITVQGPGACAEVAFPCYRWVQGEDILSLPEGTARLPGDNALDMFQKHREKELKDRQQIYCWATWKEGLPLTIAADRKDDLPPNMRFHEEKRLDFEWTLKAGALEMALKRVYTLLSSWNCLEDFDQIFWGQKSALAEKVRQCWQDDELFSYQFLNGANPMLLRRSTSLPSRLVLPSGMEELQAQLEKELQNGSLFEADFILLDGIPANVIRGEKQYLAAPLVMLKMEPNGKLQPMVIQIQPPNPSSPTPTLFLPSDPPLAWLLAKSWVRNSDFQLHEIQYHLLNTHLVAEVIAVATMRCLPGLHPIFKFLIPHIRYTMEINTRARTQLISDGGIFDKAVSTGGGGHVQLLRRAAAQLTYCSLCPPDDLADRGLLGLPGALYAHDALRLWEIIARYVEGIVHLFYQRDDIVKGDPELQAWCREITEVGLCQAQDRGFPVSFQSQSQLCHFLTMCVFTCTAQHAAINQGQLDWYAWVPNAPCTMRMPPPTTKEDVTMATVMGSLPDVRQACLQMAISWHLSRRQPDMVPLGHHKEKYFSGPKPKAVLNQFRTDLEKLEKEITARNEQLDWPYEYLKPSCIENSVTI
# The campaign covered roughly 580,000 compounds. About 6,100 (1.1%) were called active. Inconclusive results, whose numbers are uncertain, are shown with a selection of clear calls. The call rests on the fitted dose curve; in most records, active means well fitted inhibition curve with a large enough effect; inconclusive means small, poorly fitted or top-dose-only effect, or another doubt; inactive means no such curve, though single readings can be large or run the other way. Potencies of inconclusive entries are doubtful fits and often do not repeat.
# Target: Polyunsaturated fatty acid lipoxygenase ALOX12 (Homo sapiens) (UniProt P18054)
# Test: Primary qHTS assay for inhibitors of human arachidonate 12S-lipoxygenase (ALOX12): Round 2
# Conditions: purified 12hLO, xylenol orange hydroperoxide absorbance; activity change, negative = inhibition: at 108 µM (top of the series) unless noted
# Method in brief: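 Purified human 12hLO at 150 nM in 25 mM Hepes, 0.01% Triton X-100, pH 7.0, preincubated 15 min at room temperature with compound. Reaction started with 40 uM arachidonic acid, 30 min at room temperature. Hydroperoxide measured by Fe-xylenol orange, 573/405 nm absorbance ratio.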
# On the % scale 0 is the no-effect control and ±100 the full control effect; potency means the concentration at half of the fitted maximal effect.
SMILES,"activity change, negative = inhibition",Potency
CCCn1c(=O)sc2cc(NC(=O)c3ccccc3Cl)ccc21,inactive: -12.7%,–
O=C(NC(=S)Nc1ccc(S(=O)(=O)Nc2nccs2)cc1)c1cccnc1,–,"inconclusive: 44.7 µM [inhibitor, partial curve, poor fit]"
S=C(NCc1ccccc1)Nc1nccs1,–,"inconclusive: 44.7 µM [inhibitor, partial curve, poor fit]"
Oc1ccc(Br)cc1-c1cc(-c2ccccc2)n[nH]1,inactive: 20.8%,–
CCOc1ccc2nc(NS(=O)(=O)c3cccs3)sc2c1,inactive: 4%,–
CC(C)C(=O)/C(C#N)=C\c1cc2ccccc2nc1N1CCOCC1,–,"inconclusive: 7.08 µM [inhibitor, partial curve, poor fit]"
O=C(C[C@@H]1CCNC[C@@H]1Cc1cc(-c2ccccc2)on1)NC1CCCCC1,–,"inconclusive: 44.7 µM [inhibitor, partial curve]"
O=S1(=O)CC(N2CCN(CCO)CC2)CN1Cc1ccccc1 (stereo not drawn),–,"inconclusive: 112 µM [inhibitor, single point]"
COc1cccc(-c2nnc(SCC(=O)N(C3CCCCC3)C3CCS(=O)(=O)C3)n2C)c1 (stereo not drawn),inactive: -12.6%,–
Cc1cnc(C)c(-c2cccc3c2OC(CNC(=O)C2(c4ccc(Cl)cc4)CC2)C3)n1 (stereo not drawn),inactive: 8.52%,–
COc1cc(C#N)cc(Cl)c1OCc1ccccc1C#N,–,"inconclusive: 1.12 µM [inhibitor, single point]"
CCn1nccc1NC(=O)c1csc([C@@H]2O[C@H](CO)[C@H](O)[C@H](O)[C@H]2O)n1,–,"inconclusive: 28.2 µM [inhibitor, single point]"
CCC(C)n1c(SCC(=O)Nc2ccccc2C(=O)OC)nc2ccsc2c1=O (stereo not drawn),inactive: -22.1%,–
CCOC(=O)C(C)N1C(=O)S/C(=C\c2ccc(-c3ccccc3C(=O)O)o2)C1=O (stereo not drawn),–,"inconclusive: 50.1 µM [inhibitor, partial curve, poor fit]"
Cc1cc(S(=O)(=O)N2CCOCC2)ccc1OCC(=O)Nc1ccc(F)c(Cl)c1,inactive: 9.85%,–
O=C(N/N=C/c1cn(-c2ccccc2)nc1-c1ccc2c(c1)OCCO2)c1ccncc1,inactive: 9.87%,–
COc1ccc(OCC2CCNCC2)cc1,–,"inconclusive: 17.8 µM [inhibitor, full curve, poor fit]"
Cc1nc(CN2C[C@H](C(=O)Nc3cccc(F)c3)C[C@@H]2c2ccc(F)cc2)cs1,–,"inconclusive: 15.8 µM [inhibitor, full curve, poor fit]"
COc1cccc(-c2nc(SCc3cc(=O)n4cc(C)sc4n3)n[nH]2)c1,–,"inconclusive: 35.5 µM [inhibitor, partial curve, poor fit]"
COCCCNC(=O)CCCn1c(SCC(=O)c2ccc(Br)cc2)nc2c(sc3ccccc32)c1=O,–,"inconclusive: 112 µM [inhibitor, partial curve, poor fit]"
COc1ccc(C(=O)NNC(=O)C(=O)Nc2ccc(C)cc2)cc1,–,"inconclusive: 35.5 µM [inhibitor, partial curve, poor fit]"
CC1(C)Cc2c(sc(NC(=O)C3CC(Cl)=CCC3C(=O)O)c2C#N)CO1 (stereo not drawn),–,"inconclusive: 63.1 µM [inhibitor, partial curve, poor fit]"

SMILES,"activity change, negative = inhibition",Potency
FC(F)(F)Oc1ccc(NC(=S)NCCCN2CCOCC2)cc1,–,"inconclusive: 70.8 µM [inhibitor, partial curve, poor fit]"
CCOc1ccc(C(=O)N2CC(=O)Nc3ccc(C)cc3C2c2ccc(F)cc2)cc1OCC (stereo not drawn),–,"inconclusive: 56.2 µM [inhibitor, partial curve, poor fit]"
CCCCC/C=C/C=C1/C(=O)C=C[C@@H]1C/C=C\CCCC(=O)O,inactive: -4.03% [at 12.5 µM],–
Cc1ccc(Cl)c2sc(NC(=O)c3ccc(S(=O)(=O)N4CCCC4)cc3)nc12,–,"inconclusive: 79.4 µM [inhibitor, partial curve, poor fit]"
C=CC(C)n1c(Br)nc2c1c(=O)[nH]c(=O)n2C (stereo not drawn),–,"inconclusive: 17.8 µM [inhibitor, partial curve, poor fit]"
Cc1ccc(-c2c(C)n([O-])c(C)c(-c3ccc(F)cc3)[n+]2=O)cc1,–,"inconclusive: 6.31 µM [inhibitor, full curve, poor fit]"
CCCCc1c(CCC)c(=N)c2ccccc2n1C,–,"inconclusive: 56.2 µM [inhibitor, partial curve, poor fit]"
CCSc1nc2n(n1)C(c1ccccc1Cl)C1=C(CCCC1=O)N2 (stereo not drawn),inactive: 16.2%,–
Cc1ccccc1CS(=O)Cc1cccc(F)c1 (stereo not drawn),inactive: 24.1%,–
Cc1ccc(CNc2ccc(N3CCOCC3)cc2)cc1,–,"inconclusive: 11.2 µM [inhibitor, partial curve, poor fit]"
COC(=O)c1ccc(CNC(=O)Cn2cnc3c(SC)nc(N)nc32)cc1,inactive: -8.93%,–
O=C(Nc1ccc(-c2nc3ccccc3s2)cc1)C1CCN(C(=O)c2cccs2)CC1,inactive: -8.83%,–
Cc1cccc(NC(=S)NNC(=O)COc2ccc(Cl)cc2Cl)c1,–,"inconclusive: 112 µM [inhibitor, partial curve, poor fit]"
COc1ccc(NC(=O)C(c2ccccc2F)n2c(=O)c(-c3ccco3)nc3ccccc32)cc1 (stereo not drawn),–,"inconclusive: 100 µM [inhibitor, single point]"
CC1(C)CC(=O)C2=C(C1)Nc1nonc1NC2c1ccccc1F (stereo not drawn),inactive: 2.07%,–
Cc1ccc(-c2csc(Nc3ccc(O)cc3)n2)cc1C,–,"inconclusive: 39.8 µM [inhibitor, partial curve, poor fit]"
Cc1c(Br)c([N+](=O)[O-])nn1CCCC(=O)Nc1sc2c(c1C#N)CCC2,–,"inconclusive: 50.1 µM [inhibitor, partial curve]"
O=C1CCCC2=C1C(c1cccs1)CC(=O)N2c1ccc(C(F)(F)F)cc1 (stereo not drawn),inactive: 3.05%,–
COc1ccc(NC(=O)c2ccco2)cc1NC(=O)c1cc2ccccc2o1,inactive: 3.5%,–
Cc1ccc(C2(C)NC(=O)N(CC(=O)c3ccc(Cl)s3)C2=O)cc1 (stereo not drawn),–,"inconclusive: 44.7 µM [inhibitor, partial curve, poor fit]"
CCn1c(SCC(=O)Nc2ccc3c(c2)c2ccccc2n3CC)nnc1-c1cnccn1,inactive: -3.33%,–

# Complete entries as entered above. Order of values: activity change, negative = inhibition | Potency
# Cc1ccc(CNc2ccc(N3CCOCC3)cc2)cc1 in the list: – | inconclusive: 11.2 µM [inhibitor, partial curve, poor fit]
# COC(=O)c1ccc(CNC(=O)Cn2cnc3c(SC)nc(N)nc32)cc1 in the list: inactive: -8.93% | –
# Cc1ccc(C2(C)NC(=O)N(CC(=O)c3ccc(Cl)s3)C2=O)cc1 (stereo not drawn) in the list: – | inconclusive: 44.7 µM [inhibitor, partial curve, poor fit]
